Results are given in words; binding and its absence hold for the method and conditions named. Binding seen in cells or lysates may run through a third protein. Some results given as binding are weak or reduced against the parent protein; the word gives no strength.
Molecular target: human secretin receptor (human) (UniProt P47872)
Assay: FRET or BRET; competitive binding, dose response 10^-12 M to 10^-4 M of unlabelled peptide against 500 nM labelled hSCT on CHO-K1 cells with Lumi4-Tb-labelled SNAPtag-hSR, 4–8°C, 1 h; nonspecific signal with 100 μM unlabelled hSCT subtracted; four-parameter fit; only the binder purified

The chains behind the UniProt entries cited, without tags or fusion partners. Residues count along the entry.
UniProt P47872, residues 23-440: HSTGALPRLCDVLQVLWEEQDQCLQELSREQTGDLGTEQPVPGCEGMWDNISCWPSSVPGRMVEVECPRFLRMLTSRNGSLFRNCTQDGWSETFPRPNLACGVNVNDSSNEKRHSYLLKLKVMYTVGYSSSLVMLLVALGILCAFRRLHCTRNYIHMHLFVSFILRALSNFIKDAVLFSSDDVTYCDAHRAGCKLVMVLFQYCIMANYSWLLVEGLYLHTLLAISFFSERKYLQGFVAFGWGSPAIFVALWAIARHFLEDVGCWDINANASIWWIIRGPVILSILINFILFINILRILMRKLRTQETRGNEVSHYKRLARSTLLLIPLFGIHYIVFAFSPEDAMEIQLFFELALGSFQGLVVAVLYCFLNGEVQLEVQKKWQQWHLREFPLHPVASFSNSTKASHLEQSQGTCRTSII

With HSDGTFTSELSRLREGARLQRLLQGLVGC (Alexa Fluor 488 C5 maleimide on Cys29) [h[Gly^28, Alexa-Cys^29]SCT] the binding was “binds”.
